Data as given in PubChem BioAssay AID743454 (Peter MacCallum Cancer Centre, 2014).
Screen: 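Knock-downs lowering viability or raising caspase 3/7 activity in vorinostat-treated resistant cells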 (primary screen). System: human HCT116-VR colon cancer cells, selected for vorinostat resistance. Reagent: siRNA pool against human genes, 40 nM siRNA pool. Timing: vorinostat for 24 h, read-out about 72 h after transfection. Challenge: vorinostat at 2.5 µM final. Measurement: 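Cell viability by CellTiter-Fluor and caspase 3/7 activity by luminescence, each scaled to mock wells per plate, duplicates averaged, then robust z-scored over all plates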. Scale: viability robust z-score: higher = more viable cells than screen typical; caspase robust z-score: higher = more caspase 3/7 activity than screen typical. Hit rule: 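Hits are knock-downs in viability class RV1/RV2 or caspase class CA1/CA2, excluding ones that killed cells in the no-drug cell-count arm; hits then retested with single siRNAs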.
The deposit covers about 18,000 reagents; below is a part drawn at random. 450 of them (2.5%) count as active. 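Single biological run; no consistent viability z cut-off exists, so the class columns, not z-scores, define the calls.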 The numbers tell different reagents against one gene apart. No sequences are given here.

After knock-down of ZC3H11D, the screen gave viability hit class no change; caspase hit class CA1 (caspase activation); viability robust z-score 0.11; caspase robust z-score 6.48; active. ANKRD49 showed viability hit class no change; caspase hit class no change; viability robust z-score 0.64; caspase robust z-score -0.34; inactive. FCGR3A showed viability hit class no change; caspase hit class no change; viability robust z-score -1.13; caspase robust z-score 1.23; inactive. Depletion of LAPTM5 resulted in: viability hit class no change; caspase hit class no change; viability robust z-score 0.57; caspase robust z-score 0.05; inactive. Against CCDC81 the deposit lists viability hit class no change; caspase hit class no change; viability robust z-score 0.21; caspase robust z-score -0.66; inactive. Knock-down of TXN resulted in: viability hit class no change; caspase hit class no change; viability robust z-score -0.44; caspase robust z-score 0.42; inactive.

SELENOH showed viability hit class no change; caspase hit class no change; viability robust z-score 0.08; caspase robust z-score -1.02; inactive. With knock-down of ADA2, the screen gave viability hit class no change; caspase hit class no change; viability robust z-score -2.56; caspase robust z-score 0.02; inactive. For CST1, the values are viability hit class no change; caspase hit class no change; viability robust z-score -1.23; caspase robust z-score 3.13; inactive. With knock-down of POR, the screen gave viability hit class no change; caspase hit class no change; viability robust z-score 1.66; caspase robust z-score 0.14; inactive. Against MRPS27, the values are viability hit class no change; caspase hit class no change; viability robust z-score 1.06; caspase robust z-score 1.48; inactive. Depletion of TMEM225 gave: viability hit class no change; caspase hit class no change; viability robust z-score 0.64; caspase robust z-score 0.19; inactive.

C1S scored viability hit class no change; caspase hit class no change; viability robust z-score 0.5; caspase robust z-score -0.92; inactive. PKN1 scored viability hit class no change; caspase hit class no change; viability robust z-score 0.52; caspase robust z-score 0; inactive. ZNRF3 scored viability hit class no change; caspase hit class no change; viability robust z-score -0.62; caspase robust z-score 2.14; inactive. Against ACAD9, the values are viability hit class no change; caspase hit class no change; viability robust z-score -0.7; caspase robust z-score 1.25; inactive. For PYCR1 the deposit lists viability hit class no change; caspase hit class no change; viability robust z-score 0.8; caspase robust z-score -0.02; inactive. Depletion of SELENOK resulted in: viability hit class no change; caspase hit class no change; viability robust z-score 0.94; caspase robust z-score -0.82; inactive.

Knock-down of COMMD9 #1 gave: viability hit class no change; caspase hit class no change; viability robust z-score 0.16; caspase robust z-score -0.55; inactive. Depletion of COMMD9 #2 gave: viability hit class no change; caspase hit class no change; viability robust z-score 1.02; caspase robust z-score -0.1; inactive. CACTIN gave viability hit class no change; caspase hit class no change; viability robust z-score -1.26; caspase robust z-score -1.01; inactive.

3 neighbouring reagents already listed:
TMEM225 | viability hit class = no change; caspase hit class = no change; viability robust z-score = 0.64; caspase robust z-score = 0.19; Call = inactive
C1S | viability hit class = no change; caspase hit class = no change; viability robust z-score = 0.5; caspase robust z-score = -0.92; Call = inactive
PKN1 | viability hit class = no change; caspase hit class = no change; viability robust z-score = 0.52; caspase robust z-score = 0; Call = inactive
